In patent US20240327477A1, “COMPOSITIONS AND METHODS FOR THE TREATMENT OF TDP-43 PROTEINOPATHIES” (SOLA BIOSCIENCES LLC, priority 2020, published 2024):

Assay type: in vivo, mouse
Conditions: C57BL/6J mice

Construct 3: DnaJB1 J domain fused to scFv(3B12A)
expression 8 weeks after ICV injection compared with 3 weeks (AAV rh10, ICV, cerebrum extracts): significantly higher
expression of Construct 3 in cerebrum extracts (immunoblot) (AAV rh10, intrathecal or ICV injection, no detection in control mice (FIG. 15)): resulted in expression
